From patent publication US10154957B2, “Microneedle device having a peptide therapeutic agent and an amino acid and methods of making and using the same” (3M INNOVATIVE PROPERTIES COMPANY, priority 2011, dated 2018)
This continues a long series; more values of the same kind are listed elsewhere. Marks after values point to notes of the source that are not given here.

Assay: Percent purity of PTHrP analogue in coating with varying His-HCl concentration, three storage conditions (HPLC)
Type: physicochemical
Settings: peptide 10 mg/mL in PBS
Experimental: The protein or polypeptide content in the formulation coated on the microneedle arrays was determined using an Agilent 1100 HPLC system (Agilent Technologies, Wilmington, Del.) equipped with a binary pump, well-plated thermostated autosampler, thermostated column compartment, and a diode array UV detector. A Zorbax 300SB-C8 column (Agilent Technologies, Wilmington, Del.) having a 5 μm particle size and 2.1×150 mm inner diameter was used for the separations. The column was maintained at 50° C. The mobile phase consisted of two eluents. Eluent A was 0.1% TFA (trifluoroacetic acid) in water and eluent B was 0.1% TFA in acetonitrile (Spectrum Chemical, New Brunswick, N.J.). A linear gradient from 80/20 to 50/50 (A/B) was applied over 30 minutes. The flow rate was 0.4 mL/minute and the UV detection wavelength was set at 214 nm. The total run time was 34 minutes and the sample injection volume was 15 μL.
Five sample formulations were prepared containing 10 mg/mL of [Glu^22,25,Leu^23,28,31,Aib^29,Lys^26,30]hPTHrP(1-34)NH2 and varying concentrations of L-histidine monohydrochloride (His-HCl) in PBS. The concentrations of His-HCl in the sample formulations range from 1 mg/mL to 10 mg/mL. A control formulation was also prepared containing 10 mg/mL of [Glu^22,25,Leu^23,28,31,Aib^29,Lys^26,30]hPTHrP(1-34)NH2 in PBS. […] Microneedle arrays were coated with either the sample or the control formulations. The coating was applied by dropwise addition of 40 μL of the formulation to the portion of the array defined by the octagon shaped pattern of microneedles. The flood coated arrays (both sample and control formulation coated) were dried in an oven at 35° C. for 1.5 hours followed by 30° C. for 15 hours.
After drying, the coated arrays were placed in a storage chamber that was maintained at one of three storage conditions: 40° C./96% RH (storage condition A); 25° C./60% RH (storage condition B); or 5° C./ambient RH. The [Glu^22,25,Leu^23,28,31,Aib^29,Lys^26,30]hPTHrP(1-34)NH2 content of the coated arrays was determined following storage in a chamber for 1 day, 3 days, 7 days, 14 days, 21 days, 28 days, and 2 months. The initial [Glu^22,25,Leu^23,28,31,Aib^29,Lys^26,30]hPTHrP(1-34)NH2 content was also determined using freshly coated arrays (both sample and control formulation coated). The arrays used to determine initial content were stored in a refrigerator at about 4° C. and analyzed within one day of being prepared. At the designated time point, an array was taken from the chamber and washed with PBS (3.5 mL) to remove the coating from the array. An aliquot of the resulting wash solution was analyzed for [Glu^22,25,Leu^23,28,31,Aib^29,Lys^26,30]hPTHrP(1-34)NH2 content using the HPLC method described above. The results were quantified against an external standard of [Glu^22,25,Leu^23,28,31,Aib^29,Lys^26,30]hPTHrP(1-34)NH2. At each time point, the percent purity of [Glu^22,25,Leu^23,28,31,Aib^29,Lys^26,30]hPTHrP(1-34)NH2 in the coating was determined by measuring the peak area for [Glu^22,25,Leu^23,28,31,Aib^29,Lys^26,30]hPTHrP(1-34)NH2 in the selected coating and dividing it by the total peak area measured for all [Glu^22,25,Leu^23,28,31,Aib^29,Lys^26,30]hPTHrP(1-34)NH2 related peaks.

For “[Glu^22,25,Leu^23,28,31,Aib^29,Lys^26,30]hPTHrP(1-34)NH2”, the “Percent Purity of [Glu^22,25, Leu^23,28,31, Aib^29, Lys^26,30]hPTHrP(1-34)NH2” value (“Percent Purity” for short) (Histidine-HCl 1 mg/mL, Storage Condition A (40° C./96% RH), Day 1) was 97.7%, the “Percent Purity” value (Histidine-HCl 1 mg/mL, Storage Condition A (40° C./96% RH), Day 3) was 55.7% and the “Percent Purity” value (Histidine-HCl 1 mg/mL, Storage Condition A (40° C./96% RH), Day 7) was 18.6%. The “Percent Purity” value (Histidine-HCl 1 mg/mL, Storage Condition A (40° C./96% RH), Day 14, the sample for analysis contained insoluble impurities) was 29.1^(a) percent, the “Percent Purity” value (Histidine-HCl 1 mg/mL, Storage Condition A (40° C./96% RH), Day 21, the sample for analysis contained insoluble impurities) was 0^(a) percent and the “Percent Purity” value (Histidine-HCl 1 mg/mL, Storage Condition A (40° C./96% RH), Initial) was 99.0%. The “Percent Purity” value (Histidine-HCl 1 mg/mL, Storage Condition C (5° C./ambient RH), 2 months) was 98.2%, the “Percent Purity” value (Histidine-HCl 1 mg/mL, Storage Condition C (5° C./ambient RH), Day 7) was 98.8% and the “Percent Purity” value (Histidine-HCl 1 mg/mL, Storage Condition C (5° C./ambient RH), Day 14) was 98.8%. For the same substance, the “Percent Purity” value (Histidine-HCl 1 mg/mL, Storage Condition C (5° C./ambient RH), Day 28) was 98.8%, the “Percent Purity” value (Histidine-HCl 1 mg/mL, Storage Condition C (5° C./ambient RH), Initial) was 99.0% and the “Percent Purity” value (Histidine-HCl 2 mg/mL, Storage Condition C (5° C./ambient RH), 2 months) was 98.4%. For the same substance, the “Percent Purity” value (Histidine-HCl 2 mg/mL, Storage Condition C (5° C./ambient RH), Day 7) was 98.8%, the “Percent Purity” value (Histidine-HCl 2 mg/mL, Storage Condition C (5° C./ambient RH), Day 14) was 98.9% and the “Percent Purity” value (Histidine-HCl 2 mg/mL, Storage Condition C (5° C./ambient RH), Day 28) was 98.9%. The “Percent Purity” value (Histidine-HCl 2 mg/mL, Storage Condition C (5° C./ambient RH), Initial) was 99.0%, the “Percent Purity” value (Histidine-HCl 3.3 mg/mL, Storage Condition C (5° C./ambient RH), 2 months) was 98.6% and the “Percent Purity” value (Histidine-HCl 3.3 mg/mL, Storage Condition C (5° C./ambient RH), Day 7) was 98.8%. For the same substance, the “Percent Purity” value (Histidine-HCl 3.3 mg/mL, Storage Condition C (5° C./ambient RH), Day 14) was 98.9%, the “Percent Purity” value (Histidine-HCl 3.3 mg/mL, Storage Condition C (5° C./ambient RH), Day 28) was 98.8% and the “Percent Purity” value (Histidine-HCl 3.3 mg/mL, Storage Condition C (5° C./ambient RH), Initial) was 99.3%. The “Percent Purity” value (Histidine-HCl 5 mg/mL, Storage Condition C (5° C./ambient RH), 2 months) was 98.6%, the “Percent Purity” value (Histidine-HCl 5 mg/mL, Storage Condition C (5° C./ambient RH), Day 7) was 98.9% and the “Percent Purity” value (Histidine-HCl 5 mg/mL, Storage Condition C (5° C./ambient RH), Day 14) was 98.9%. The “Percent Purity” value (Histidine-HCl 5 mg/mL, Storage Condition C (5° C./ambient RH), Day 28) was 98.8%, the “Percent Purity” value (Histidine-HCl 5 mg/mL, Storage Condition C (5° C./ambient RH), Initial) was 99.0% and the “Percent Purity” value (Histidine-HCl 10 mg/mL, Storage Condition B (25° C./60% RH), 2 months) was 98.6%. For the same substance, the “Percent Purity” value (Histidine-HCl 10 mg/mL, Storage Condition B (25° C./60% RH), Day 28) was 98.9%, the “Percent Purity” value (Histidine-HCl 10 mg/mL, Storage Condition C (5° C./ambient RH), 2 months) was 98.7% and the “Percent Purity” value (Histidine-HCl 10 mg/mL, Storage Condition C (5° C./ambient RH), Day 7) was 98.9%. For the same substance, the “Percent Purity” value (Histidine-HCl 10 mg/mL, Storage Condition C (5° C./ambient RH), Day 14) was 98.9%, the “Percent Purity” value (Histidine-HCl 10 mg/mL, Storage Condition C (5° C./ambient RH), Day 28) was 98.9% and the “Percent Purity” value (Histidine-HCl 10 mg/mL, Storage Condition C (5° C./ambient RH), Initial) was 99.0%. For the same substance, the “Percent Purity” value (Histidine-HCl None, Storage Condition A (40° C./96% RH), Day 1) was 57.5%, the “Percent Purity” value (Histidine-HCl None, Storage Condition A (40° C./96% RH), Day 3) was 17.3% and the “Percent Purity” value (Histidine-HCl None, Storage Condition A (40° C./96% RH), Day 7, the sample for analysis contained insoluble impurities) was 42.1^(a) percent. The “Percent Purity” value (Histidine-HCl None, Storage Condition A (40° C./96% RH), Day 14, the sample for analysis contained insoluble impurities) was 10.6^(a) percent, the “Percent Purity” value (Histidine-HCl None, Storage Condition A (40° C./96% RH), Day 21, the sample for analysis contained insoluble impurities) was 0^(a) percent and the “Percent Purity” value (Histidine-HCl None, Storage Condition A (40° C./96% RH), Initial) was 98.7%. The “Percent Purity” value (Histidine-HCl none, Storage Condition C (5° C./ambient RH), 2 months) was 97.3%, the “Percent Purity” value (Histidine-HCl none, Storage Condition C (5° C./ambient RH), Day 7) was 98.0% and the “Percent Purity” value (Histidine-HCl none, Storage Condition C (5° C./ambient RH), Day 14) was 98.4%. The “Percent Purity” value (Histidine-HCl none, Storage Condition C (5° C./ambient RH), Day 28) was 97.6% and the “Percent Purity” value (Histidine-HCl none, Storage Condition C (5° C./ambient RH), Initial) was 98.7%.
